Laboratory results: PubChem BioAssay AID504784 (Drosophila RNAi Screening Center, 2011)
The deposit covers about 17,000 reagents; this is a random part of those with a known target gene and a result. 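Each column is one replicate's B-score; the combined score over replicates was not deposited, so single values may mislead.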 A plus sign joins genes that one reagent is predicted to hit. Further read-outs or replicates are left out here.

Test: 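Search for regulators of lipid droplet storage in oleate-fed fly cells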 (primary screen)
Cells: Drosophila Kc167 embryonic cells
Reagents: long dsRNA against Drosophila genes, about 250 ng dsRNA per well
Timing: 4 days
Challenge: cells fed 400 µM oleic acid bound to BSA
Measured: 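Microscope images give a droplet-to-nucleus area ratio, taken as log and converted to a screen-wide B-score; higher values mean greater lipid storage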
Reading the numbers: droplet/nuclear area B-score: higher = more stored lipid (overstorage)

droplet/nuclear area B-score, replicate 1, by target gene and reagent
MED24: DRSC10944 -0.853
cad: DRSC03502 3.48; DRSC23193 0.561
CG3652: DRSC00624 -0.534
CG9270: DRSC03182 -0.0659
CG13458: DRSC10005 1.15
asp: DRSC16903 -1.19
CG13994: DRSC02326 0.706
CCT8: DRSC07130 0.508
CheB38b: DRSC22874 1.18
Hinfp: DRSC18484 0.552
Sox102F: DRSC17204 -0.6
CG3085: DRSC04335 -0.248
Pgant4: DRSC00717 0.145
CG43066: DRSC06927 1.36
dod: DRSC20577 0.0271
asrij: DRSC04175 -0.447
CG18273: DRSC18150 -0.539; DRSC18505 -2.69
Tbcd: DRSC00273 -0.492
Cdc5: DRSC08577 0.807
Cip4: DRSC08469 1.12; DRSC21740 0.524
aqrs: DRSC14724 0.0355
cav: DRSC15995 -0.0306
VhaSFD: DRSC03471 -0.0527
Orc1: DRSC07496 1.29
CG8841: DRSC07286 0.499
CG5033: DRSC07410 0.172
CCT1: DRSC16877 0.0296
CG10936: DRSC05669 0.322; DRSC05670 0.583; DRSC06018 0.747
CG3655: DRSC18181 -0.617; DRSC18477 -1.55; DRSC22688 0.626
GXIVsPLA2: DRSC10243 -1.39
Patsas: DRSC02975 -0.0355
Lsp1gamma: DRSC08672 -0.0723
mthl5: DRSC16155 1.4
pea: DRSC07120 2.01
Pi3K59F: DRSC04640 -0.242
PH4alphaPV: DRSC22400 -0.301
CG10764: DRSC06000 -1.59
mad2: DRSC10274 0.197
CG9016: DRSC03127 1.38
Mpi: DRSC16417 0.847
CG9582: DRSC03267 -0.244
CG31717: DRSC01121 -0.96
ppk: DRSC03595 1.75
Irbp18: DRSC10612 -0.815
Mur11Da: DRSC18960 0.111
CG31953 (retired record) + gkt: DRSC00709 -0.731
E(spl)m3-HLH: DRSC16694 0.645; DRSC23160 0.713
AANATL7: DRSC18616 -1.36
CG8312: DRSC16406 -0.674
aru: DRSC00802 1.07; DRSC22019 2.85
Chd64: DRSC08649 0.0823
eIF3f1: DRSC12328 3.13
babos: DRSC03923 0.0285; DRSC04397 -1.51
CG13124: DRSC02220 -0.147
gig: DRSC11351 1.22
meng: DRSC02134 0.677
kud: DRSC11086 -0.137
CG13071: DRSC09954 -0.429
DIP-theta: DRSC00885 0.0724; DRSC02340 0.479; DRSC02341 1.28
TM9SF3: DRSC09747 2.96
Nazo: DRSC14343 -0.578
CG15393 (retired record): DRSC00407 -0.4
CG10991 (retired record): DRSC12156 -0.623
CG8399: DRSC07163 6.8
rdgBbeta: DRSC07672 1.42
Gr59e: DRSC04276 1.52
CG11714: DRSC09857 -0.271
eEF1delta: DRSC02790 -0.993
angel: DRSC04670 0.4; DRSC21326 0.223
Pp1-87B: DRSC16794 -0.0377; DRSC23299 0.444
Khc-73: DRSC07449 -0.176
nab: DRSC08455 -0.563; DRSC08456 -0.188
Fak: DRSC07426 -0.554
Syn1 + CG7370: DRSC22768 0.388
Nthl1: DRSC03183 -0.422
Tsp42Eq: DRSC06180 -0.996
Spn100A: DRSC14596 -1.55
Uba3: DRSC06377 -2.47
wupA: DRSC20385 -0.333; DRSC22547 0
CG12902: DRSC06217 -0.389
holn1: DRSC02827 0.573; DRSC22822 5.89
HisRS: DRSC19986 -0.977
CG2070: DRSC06814 2.4
eIF3d1: DRSC16938 0.0575
CG7900: DRSC16336 0.657; DRSC21343 1.84
mre11: DRSC03570 1.2; DRSC22628 -0.61

In a second layout: entries from further up.
target gene	DRSC id	droplet/nuclear area B-score, replicate 1
nab	DRSC08455	-0.563
nab	DRSC08456	-0.188
Fak	DRSC07426	-0.554
Syn1 + CG7370	DRSC22768	0.388
Nthl1	DRSC03183	-0.422
Tsp42Eq	DRSC06180	-0.996
Spn100A	DRSC14596	-1.55
Uba3	DRSC06377	-2.47
wupA	DRSC20385	-0.333
wupA	DRSC22547	0
CG12902	DRSC06217	-0.389
